Data as given in PMC8605320.

T1: SPTLC2^FLAG (WT-SPTLC2 with C-terminal 3xFLAG), in Flp-In T-REx 293 SPTLC2-KO cells (human) (UniProt O15270)
T1 sequence: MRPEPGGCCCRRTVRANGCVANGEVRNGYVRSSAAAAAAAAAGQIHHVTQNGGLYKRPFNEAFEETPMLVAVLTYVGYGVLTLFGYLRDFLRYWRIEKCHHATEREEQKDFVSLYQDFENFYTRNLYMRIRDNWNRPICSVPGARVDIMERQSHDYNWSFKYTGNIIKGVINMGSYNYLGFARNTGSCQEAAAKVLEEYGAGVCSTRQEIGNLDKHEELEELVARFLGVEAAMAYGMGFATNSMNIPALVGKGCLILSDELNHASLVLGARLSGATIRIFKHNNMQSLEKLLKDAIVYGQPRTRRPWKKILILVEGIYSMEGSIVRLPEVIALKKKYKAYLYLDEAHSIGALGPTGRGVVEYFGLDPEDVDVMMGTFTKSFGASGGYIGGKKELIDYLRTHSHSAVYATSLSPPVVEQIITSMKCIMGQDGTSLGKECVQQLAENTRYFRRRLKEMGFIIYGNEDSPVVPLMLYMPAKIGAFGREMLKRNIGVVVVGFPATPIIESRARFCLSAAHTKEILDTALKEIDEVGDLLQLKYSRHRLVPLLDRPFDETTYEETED

B1: ESYT1 (protein, UniProt Q9BSJ8 1-1104)
chain: MERSPGEGPSPSPMDQPSAPSDPTDQPPAAHAKPDPGSGGQPAGPGAAGEALAVLTSFGRRLLVLIPVYLAGAVGLSVGFVLFGLALYLGWRRVRDEKERSLRAARQLLDDEEQLTAKTLYMSHRELPAWVSFPDVEKAEWLNKIVAQVWPFLGQYMEKLLAETVAPAVRGSNPHLQTFTFTRVELGEKPLRIIGVKVHPGQRKEQILLDLNISYVGDVQIDVEVKKYFCKAGVKGMQLHGVLRVILEPLIGDLPFVGAVSMFFIRRPTLDINWTGMTNLLDIPGLSSLSDTMIMDSIAAFLVLPNRLLVPLVPDLQDVAQLRSPLPRGIIRIHLLAARGLSSKDKYVKGLIEGKSDPYALVRLGTQTFCSRVIDEELNPQWGETYEVMVHEVPGQEIEVEVFDKDPDKDDFLGRMKLDVGKVLQASVLDDWFPLQGGQGQVHLRLEWLSLLSDAEKLEQVLQWNWGVSSRPDPPSAAILVVYLDRAQDLPLKKGNKEPNPMVQLSIQDVTQESKAVYSTNCPVWEEAFRFFLQDPQSQELDVQVKDDSRALTLGALTLPLARLLTAPELILDQWFQLSSSGPNSRLYMKLVMRILYLDSSEICFPTVPGCPGAWDVDSENPQRGSSVDAPPRPCHTTPDSQFGTEHVLRIHVLEAQDLIAKDRFLGGLVKGKSDPYVKLKLAGRSFRSHVVREDLNPRWNEVFEVIVTSVPGQELEVEVFDKDLDKDDFLGRCKVRLTTVLNSGFLDEWLTLEDVPSGRLHLRLERLTPRPTAAELEEVLQVNSLIQTQKSAELAAALLSIYMERAEDLPLRKGTKHLSPYATLTVGDSSHKTKTISQTSAPVWDESASFLIRKPHTESLELQVRGEGTGVLGSLSLPLSELLVADQLCLDRWFTLSSGQGQVLLRAQLGILVSQHSGVEAHSHSYSHSSSSLSEEPELSGGPPHITSSAPELRQRLTHVDSPLEAPAGPLGQVKLTLWYYSEERKLVSIVHGCRSLRQNGRDPPDPYVSLLLLPDKNRGTKRRTSQKKRTLSPEFNERFEWELPLDEAQRRKLDVSVKSNSSFMSRERELLGKVQLDLAETDLSQGVARWYDLMDNKDKGSS
B2: ORMDL3 (protein, UniProt Q8N138 1-153)
chain: MNVGTAHSEVNPNTRVMNSRGIWLSYVLAIGLLHIVLLSIPFVSVPVVWTLTNLIHNMGMYIFLHTVKGTPFETPDQGKARLLTHWEQMDYGVQFTASRKFLTITPIVLYFLTSFYTKYDQIHFVLNTVSLMSVLIPKLPQLHGVRIFGINKY
B3: TOMM40 (protein, UniProt O96008 1-361)
chain: MGNVLAASSPPAGPPPPPAPALVGLPPPPPSPPGFTLPPLGGSLGAGTSTSRSSERTPGAATASASGAAEDGACGCLPNPGTFEECHRKCKELFPIQMEGVKLTVNKGLSNHFQVNHTVALSTIGESNYHFGVTYVGTKQLSPTEAFPVLVGDMDNSGSLNAQVIHQLGPGLRSKMAIQTQQSKFVNWQVDGEYRGSDFTAAVTLGNPDVLVGSGILVAHYLQSITPCLALGGELVYHRRPGEEGTVMSLAGKYTLNNWLATVTLGQAGMHATYYHKASDQLQVGVEFEASTRMQDTSVSFGYQLDLPKANLLFKGSVDSNWIVGATLEKKLPPLPLTLALGAFLNHRKNKFQCGFGLTIG
B4: GK (protein, UniProt P32189 1-559)
chain: MAASKKAVLGPLVGAVDQGTSSTRFLVFNSKTAELLSHHQVEIKQEFPREGWVEQDPKEILHSVYECIEKTCEKLGQLNIDISNIKAIGVSNQRETTVVWDKITGEPLYNAVVWLDLRTQSTVESLSKRIPGNNNFVKSKTGLPLSTYFSAVKLRWLLDNVRKVQKAVEEKRALFGTIDSWLIWSLTGGVNGGVHCTDVTNASRTMLFNIHSLEWDKQLCEFFGIPMEILPNVRSSSEIYGLMKISHSVKAGALEGVPISGCLGDQSAALVGQMCFQIGQAKNTYGTGCFLLCNTGHKCVFSDHGLLTTVAYKLGRDKPVYYALEGSVAIAGAVIRWLRDNLGIIKTSEEIEKLAKEVGTSYGCYFVPAFSGLYAPYWEPSARGIICGLTQFTNKCHIAFAALEAVCFQTREILDAMNRDCGIPLSHLQVDGGMTSNKILMQLQADILYIPVVKPSMPETTALGAAMAAGAAEGVGVWSLEPEDLSAVTMERFEPQINAEESEIRYSTWKKAVMKSMGWVTTQSPESGDPSIFCSLPLGFFIVSSMVMLIGARYISGIP
B5: ORMDL2 (protein, UniProt Q53FV1 1-153)
chain: MNVGVAHSEVNPNTRVMNSRGIWLAYIILVGLLHMVLLSIPFFSIPVVWTLTNVIHNLATYVFLHTVKGTPFETPDQGKARLLTHWEQMDYGLQFTSSRKFLSISPIVLYLLASFYTKYDAAHFLINTASLLSVLLPKLPQFHGVRVFGINKY
B6: MFF (protein, UniProt Q9GZY8 1-342)
chain: MSKGTSSDTSLGRVSRAAFPSPTAAEMAEISRIQYEMEYTEGISQRMRVPEKLKVAPPNADLEQGFQEGVPNASVIMQVPERIVVAGNNEDVSFSRPADLDLIQSTPFKPLALKTPPRVLTLSERPLDFLDLERPPTTPQNEEIRAVGRLKRERSMSENAVRQNGQLVRNDSLWHRSDSAPRNKISRFQAPISAPEYTVTPSPQQARVCPPHMLPEDGANLSSARGILSLIQSSTRRAYQQILDVLDENRRPVLRGGSAAATSNPHHDNVRYGISNIDTTIEGTSDDLTVVDAASLRRQIIKLNRRLQLLEEENKERAKREMVMYSITVAFWLLNSWLWFRR
B7: ORMDL1 (protein, UniProt Q9P0S3 1-153)
chain: MNVGVAHSEVNPNTRVMNSRGMWLTYALGVGLLHIVLLSIPFFSVPVAWTLTNIIHNLGMYVFLHAVKGTPFETPDQGKARLLTHWEQLDYGVQFTSSRKFFTISPIILYFLASFYTKYDPTHFILNTASLLSVLIPKMPQLHGVRIFGINKY

Target: T1, SPTLC2^FLAG (WT-SPTLC2 with C-terminal 3xFLAG), in Flp-In T-REx 293 SPTLC2-KO cells (human)
Assay: affinity purification with mass spectrometry; heavy membrane fractions of Flp-In T-REx 293 SPTLC2-KO cells with or without SPTLC2^FLAG, solubilised with digitonin (50 mM TRIS pH 7.4, 150 mM NaCl), anti-FLAG magnetic M2 beads 3 h, eluted with 100 mM glycine pH 2.5, mass spectrometry

| binding | Binder |
| --- | --- |
| binds | B1 |
| binds | B2 |
| binds | B3 |
| binds | B4 |
| binds | B5 |
| binds | B6 |
| binds | B7 |

Results are given in words; binding and its absence hold for the method and conditions named. Binding seen in cells or lysates may run through a third protein. A yes stands for co-enrichment or nearness to the bait. Other partners may have been found. Sequences can lack the tags named with a protein.
